This series in a line: general procedure: Fmoc solid-phase peptide synthesis; O-Bis-(aminoethyl)ethylene glycol trityl resin; HBTU. The settings on record: whole synthesis.

With “ClCH2CO-Lys (Hexanoyl)-Cys(tBu)-Arg-Gly-Asp-Cys(tBu)-Phe-Cys-Gly-NH—(CH2CH2O)2CH2CH2NH2”, for the setting “scale 0.1 mmol”, the crude mass worked out at 100 mg.

With “ClCH2CO-Lys(PEG2000)-Cys(tBu)-Arg-Gly-Asp-Cys(tBu)-Phe-Cys-Gly-NH—(CH2CH2O)2CH2CH2NH2”, for the setting “scale 0.1 mmol”, the crude mass amounted to 110 mg.

Regarding “ClCH2CONH-Asp-Cys(MBzl)-Arg-Gly-Asp-Cys(MBzl)-Phe-Cys-Gly-NH—(CH2CH2O)2CH2CH2NH2”, the crude mass (scale 0.25 mmol) worked out at 250 mg.

The values are drawn from patent publication US7351790 (dated 2008).
